From PMC5389796 come the findings set out here.

Chains of the proteins cited; added tags and fusions are not shown. Residues count along the entry.
UniProt P10451, residues 17-314: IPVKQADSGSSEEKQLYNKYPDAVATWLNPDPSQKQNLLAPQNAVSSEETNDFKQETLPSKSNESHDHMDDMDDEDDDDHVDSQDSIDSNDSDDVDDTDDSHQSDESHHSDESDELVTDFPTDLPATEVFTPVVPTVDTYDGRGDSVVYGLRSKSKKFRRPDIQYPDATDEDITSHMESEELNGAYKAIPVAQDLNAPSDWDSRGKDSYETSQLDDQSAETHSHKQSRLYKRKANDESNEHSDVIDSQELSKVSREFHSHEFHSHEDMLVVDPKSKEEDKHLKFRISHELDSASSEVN

No constants are given. Whether binding was seen depends on the method and setting. Binding seen in cells or lysates may run through a third protein. Some binding calls cover weakened binding; strength is not graded here. For some assays here: Where a sequence is shown, tags or fusion partners need not be part of it.

The target of assay [1] is T1, primary islet TALK-1 channels (human (endogenous in human islets)) (UniProt Q96T55).
T1 sequence: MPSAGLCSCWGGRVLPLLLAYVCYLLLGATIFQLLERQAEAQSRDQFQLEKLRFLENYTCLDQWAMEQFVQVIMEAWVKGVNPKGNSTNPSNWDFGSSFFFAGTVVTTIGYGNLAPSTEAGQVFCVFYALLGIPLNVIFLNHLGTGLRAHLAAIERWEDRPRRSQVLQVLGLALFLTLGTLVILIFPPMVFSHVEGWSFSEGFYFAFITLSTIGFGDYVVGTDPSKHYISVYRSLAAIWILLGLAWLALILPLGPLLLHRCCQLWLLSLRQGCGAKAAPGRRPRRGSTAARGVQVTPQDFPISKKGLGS
Kind of assay: co-IP; primary human islets (5000 IEQs), RIPA lysate; rabbit anti-TALK-1 immunoprecipitation; blot with mouse anti-iOPN.

Assay [2] concerns the target T2, TALK-1 T3-FLAG (human) (UniProt Q96T55).
T2 sequence: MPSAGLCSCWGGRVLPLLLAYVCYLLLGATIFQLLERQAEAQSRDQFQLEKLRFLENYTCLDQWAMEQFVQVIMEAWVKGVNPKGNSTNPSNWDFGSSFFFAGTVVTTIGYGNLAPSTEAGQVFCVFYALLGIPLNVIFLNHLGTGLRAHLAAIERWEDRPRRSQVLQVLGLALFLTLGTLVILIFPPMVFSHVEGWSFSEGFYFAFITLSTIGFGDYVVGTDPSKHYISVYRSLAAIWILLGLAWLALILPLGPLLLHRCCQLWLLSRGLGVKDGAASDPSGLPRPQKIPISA
The assay is described as follows: co-IP; HEK293 cells co-transfected 48 hrs; RIPA lysate; anti-FLAG M2 with protein A/G magnetic beads overnight at 4°C; eluted with FLAG peptide; blot with anti-V5.

Regarding “iOPN of human islets (from UniProt P10451 17-314)”, in assay [1], the binding entry is recorded as “binds”.

B1: CLDN10b-V5 (protein, UniProt P78369-1 1-228)
chain: MASTASEIIAFMVSISGWVLVSSTLPTDYWKVSTIDGTVITTATYWANLWKACVTDSTGVSNCKDFPSMLALDGYIQACRGLMIAAVSLGFFGSIFALFGMKCTKVGGSDKAKAKIACLAGIVFILSGLCSMTGCSLYANKITTEFFDPLFVEQKYELGAALFIGWAGASLCIIGGVIFCFSISDNNKTPRYTYNGATSVMSSRTKYHGGEDFKTTNPSKQFDKNAYV
On to B1, for which, in assay [2], the binding result was “binds”.
